# From publication PMC12087451
# Protein sequences, listed by entry. Tags and fused reporters are not part of them.
# UniProt P08515, whole entry: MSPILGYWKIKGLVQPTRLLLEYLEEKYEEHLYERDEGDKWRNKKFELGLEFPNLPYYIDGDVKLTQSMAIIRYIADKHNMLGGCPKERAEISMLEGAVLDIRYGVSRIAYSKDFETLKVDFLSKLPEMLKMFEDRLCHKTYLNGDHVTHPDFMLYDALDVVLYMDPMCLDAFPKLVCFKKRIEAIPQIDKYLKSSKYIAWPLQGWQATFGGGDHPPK
# For at least one entry, the source does not settle the construct or the ends of the probe. For some of these results: Negatives hold for the conditions tested.
# How the values were obtained:
# [1] = system: GST-SmbHLH85 (Salvia miltiorrhiza); assay: competition with a labelled probe; settings: unlabelled mutant competitor, stated at the same amount as the biotin probe; Chemiluminescent EMSA kit (Beyotime GS009) EMSA/Gel-Shift binding buffer, 25 C, 10 min then 20 min with biotin probe, 6% PAGE; salt and pH not stated; recombinant protein; protein details: N-terminal GST (pGEX-4T-1)
# [2] = system: GST-SmbHLH65 (Salvia miltiorrhiza); assay: EMSA; settings: Chemiluminescent EMSA kit (Beyotime GS009) EMSA/Gel-Shift binding buffer, 25 C, 10 min then 20 min with biotin probe, 6% PAGE; salt and pH not stated; recombinant protein; protein details: N-terminal GST (pGEX-4T-1)
# [3] = system: GST-SmbHLH85 (Salvia miltiorrhiza); assay: EMSA; settings: Chemiluminescent EMSA kit (Beyotime GS009) EMSA/Gel-Shift binding buffer, 25 C, 10 min then 20 min with biotin probe, 6% PAGE; salt and pH not stated; recombinant protein; protein details: N-terminal GST (pGEX-4T-1)
# GST = GST (UniProt P08515); assay: EMSA; settings: Chemiluminescent EMSA kit (Beyotime GS009) EMSA/Gel-Shift binding buffer, 25 C, 10 min then 20 min with biotin probe, 6% PAGE; salt and pH not stated; recombinant protein; protein details: GST
Sequence,binding result [1],binding result [2],binding result [3],binding result (GST)
AAAGGCAAAAAATTTTTAAAAGGCAAAAAATTTTTAAAAGGCAAAAAATTTTTA (double strand) [pSmDXS2-M cold probe],no binding,,,
AAAGGCCATGTGTTTTTAAAAGGCCATGTGTTTTTAAAAGGCCATGTGTTTTTA (double strand) [pSmDXS2 E-box probe (3 copies)],,no binding,binds,
CATTTCAAAAAACAATTACATTTCAAAAAACAATTACATTTCAAAAAACAATTA (double strand) [pSmCPS1-M cold probe],no binding,,,
CATTTCCACATGCAATTACATTTCCACATGCAATTACATTTCCACATGCAATTA (double strand) [pSmCPS1 E-box probe (3 copies)],,no binding,binds,
TTCATTGACCAAATTTCATTGACCAAATTTCATTGACCAAAT (double strand) [pSmbHLH65 W-box probe (3 copies)],,,,no binding
